Values from PubChem BioAssay AID504784 (Drosophila RNAi Screening Center, 2011)
The deposit covers about 17,000 reagents; this is a random part of those with a known target gene and a result. 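Each column is one replicate's B-score; the combined score over replicates was not deposited, so single values may mislead.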 Names joined by + are all predicted targets of the reagent. No sequences are given here.

Aim: 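Fly genes whose silencing alters how much lipid cells keep in droplets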 (primary screen)
System: Drosophila Kc167 embryonic cells
Knock-down reagent: long dsRNA against Drosophila genes, about 250 ng dsRNA per well
Duration: 4 days
Conditions: cells fed 400 µM oleic acid bound to BSA
Detection: 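Microscope images give a droplet-to-nucleus area ratio, taken as log and converted to a screen-wide B-score; higher values mean greater lipid storage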
Reading the numbers: droplet/nuclear area B-score: higher = more stored lipid (overstorage)

target | PubChem SID | droplet/nuclear area B-score, replicate 1 | droplet/nuclear area B-score, replicate 2 | droplet/nuclear area B-score, replicate 3
Tango4 | SID104199578 | 0.361 | -0.51 | 1.44
CG14073 | SID104189870 | 0.654 | -0.314 | –
crn | SID104197976 | 0.981 | 1.95 | –
crn | SID104197977 | -0.042 | 0.745 | –
crn | SID104198547 | -0.333 | -0.00339 | –
CG32106 | SID104189011 | -0.674 | 0.00446 | –
cbt | SID104180447 | 4.38 | -0.0519 | –
CG17271 | SID104195002 | 0.137 | -1.66 | –
CG17271 | SID104202039 | 2.24 | 0.484 | –
CG17271 | SID104202339 | -2.16 | 0.836 | –
vap | SID104200067 | 0.265 | -1.09 | 2.04
dyw | SID104198020 | -0.226 | -0.832 | –
Xxylt | SID104183899 | 0.119 | 0.129 | –
Sec61alpha | SID104183048 | 0.108 | 1.38 | –
CG33494 | SID104193507 | 1.39 | 0.462 | –
CG31086 + CG31323 | SID104194694 | 0.114 | 0.317 | –
Tsp42Ek | SID104185979 | 0.571 | 2.15 | –
Lipt1 | SID104186975 | 0.295 | -0.77 | –
CG9287 | SID104182978 | -0.238 | 0.136 | 1.31
CG9287 | SID104202149 | 1.71 | 0.118 | –
PNKP | SID104196304 | 0.937 | -3.14 | –
Su(P) | SID104191083 | 3.1 | -1.41 | –
CG31156 | SID104195545 | -0.5 | -0.521 | –
CG31156 | SID104195547 | -0.263 | 4.43 | –
CG7366 | SID104190617 | 0.0223 | -0.785 | –
SREBP | SID104190974 | -0.8 | 1.23 | –
TwdlL | SID104195834 | -0.00751 | -0.685 | –
Cyp6w1 | SID104184701 | -1.09 | -0.518 | –
Hel89B | SID104196492 | -0.772 | -0.211 | 0.322
Hel89B | SID104201285 | 1.74 | -0.55 | –
CG6231 | SID104195789 | -0.0915 | -4.09 | –
CG33136 | SID104185536 | 0.0214 | -0.0874 | –
vn | SID104191200 | 2.08 | 0.625 | –
vn | SID104202578 | 0.27 | 1.05 | –
CG3592 | SID104198107 | -0.716 | 0.408 | –
E(spl)malpha-BFM | SID104196786 | 1.43 | 0.313 | –
vimar | SID104184818 | -1.75 | -1.68 | –
Ugt35E2 | SID104195875 | 1.25 | -0.468 | –
CG12817 | SID104194347 | -0.0372 | 0.141 | –
plx | SID104192052 | -0.751 | 0.133 | –
plx | SID104192177 | -2.19 | -2.58 | 0.108
plx | SID104202075 | -2.12 | -2.01 | –
akirin | SID104190792 | -0.0494 | -0.0527 | –
cav | SID104195787 | -0.0306 | -3.13 | –
CG12464 | SID104185948 | -0.626 | -0.805 | –
Nak | SID104183171 | -0.0351 | 0.976 | –
SLIRP1 + anox | SID104200334 | -1.02 | -1.31 | –
Pxt | SID104196832 | 2.21 | 3.24 | –
NT1 | SID104188322 | -1.63 | -2.04 | –
NT1 | SID104202254 | 4.02 | 0.435 | –
CG10527 | SID104183870 | 0.343 | -0.899 | –
CG14743 | SID104186271 | -0.106 | -0.278 | –
Spn31A | SID104182572 | 0.68 | -0.136 | –
EloA | SID104195901 | 0.263 | -0.433 | –
Spn88Eb | SID104195885 | – | 0.57 | –
CG8136 | SID104196177 | -0.729 | -0.935 | –
CG6785 | SID104182785 | -0.353 | -0.52 | –
CG13326 | SID104186155 | 0.0613 | -3.19 | –
CG34348 | SID104199217 | 0.0176 | -0.517 | 0.343
CG34348 | SID104199436 | -1.96 | -2.08 | -2.41
Miox | SID104190539 | -0.508 | 0.814 | –
Srg1 | SID104194432 | 1.98 | -0.0734 | –
azot | SID104185843 | 1.12 | 1.38 | –
CG16879 (retired record) | SID104181710 | 0.0724 | -0.0543 | 2.65
CG16879 (retired record) | SID104202208 | 0.0934 | -0.396 | –
Gr59e | SID104184068 | 1.52 | 1.5 | –
OS9 | SID104182492 | 0.238 | 1.11 | –
CG8726 | SID104187042 | -0.117 | 6.56 | –
DIP-alpha | SID104197683 | -1.53 | -0.0156 | –
DIP-alpha | SID104197684 | 0.316 | -3.29 | –
DIP-alpha | SID104202632 | 0.555 | 1.89 | –
Usp47 | SID104191105 | 1.28 | -1.72 | –
GckIII | SID104195521 | -0.0415 | 0.0619 | –
fipi | SID104180257 | 0.149 | -2.41 | –
CG14186 | SID104189977 | -0.602 | -0.873 | -0.516
CG13473 | SID104189809 | 2.95 | -0.323 | 0.905
syd | SID104190755 | -1.58 | 0.0401 | –
CG7639 | SID104186818 | -0.2 | -0.0378 | –
LRP1 | SID104187030 | 0.216 | 2.14 | –
CG5139 | SID104180473 | -0.0302 | 1.59 | –
CG32246 | SID104187907 | -0.135 | 0.00849 | –
Sting | SID104186407 | -0.0425 | -0.263 | –
Hgsnat | SID104198197 | -0.925 | 1.76 | 0.0884

Quoted from above for reference:
target | PubChem SID | droplet/nuclear area B-score, replicate 1 | droplet/nuclear area B-score, replicate 2 | droplet/nuclear area B-score, replicate 3
dyw | SID104198020 | -0.226 | -0.832 | –
Xxylt | SID104183899 | 0.119 | 0.129 | –
Sec61alpha | SID104183048 | 0.108 | 1.38 | –
CG33494 | SID104193507 | 1.39 | 0.462 | –
CG31086 + CG31323 | SID104194694 | 0.114 | 0.317 | –
Tsp42Ek | SID104185979 | 0.571 | 2.15 | –
Lipt1 | SID104186975 | 0.295 | -0.77 | –
CG9287 | SID104182978 | -0.238 | 0.136 | 1.31
CG9287 | SID104202149 | 1.71 | 0.118 | –
